Experimental data from PMC7979793.
Results are given in words; binding and its absence hold for the method and conditions named. Binding seen in cells or lysates may run through a third protein. Here binding means that the protein was enriched with, or labelled near, the bait; the list need not be complete. Where a sequence is shown, tags or fusion partners need not be part of it.

Sequences of proteins named here, by UniProt entry; tags and fusion partners are left off.
UniProt P34931: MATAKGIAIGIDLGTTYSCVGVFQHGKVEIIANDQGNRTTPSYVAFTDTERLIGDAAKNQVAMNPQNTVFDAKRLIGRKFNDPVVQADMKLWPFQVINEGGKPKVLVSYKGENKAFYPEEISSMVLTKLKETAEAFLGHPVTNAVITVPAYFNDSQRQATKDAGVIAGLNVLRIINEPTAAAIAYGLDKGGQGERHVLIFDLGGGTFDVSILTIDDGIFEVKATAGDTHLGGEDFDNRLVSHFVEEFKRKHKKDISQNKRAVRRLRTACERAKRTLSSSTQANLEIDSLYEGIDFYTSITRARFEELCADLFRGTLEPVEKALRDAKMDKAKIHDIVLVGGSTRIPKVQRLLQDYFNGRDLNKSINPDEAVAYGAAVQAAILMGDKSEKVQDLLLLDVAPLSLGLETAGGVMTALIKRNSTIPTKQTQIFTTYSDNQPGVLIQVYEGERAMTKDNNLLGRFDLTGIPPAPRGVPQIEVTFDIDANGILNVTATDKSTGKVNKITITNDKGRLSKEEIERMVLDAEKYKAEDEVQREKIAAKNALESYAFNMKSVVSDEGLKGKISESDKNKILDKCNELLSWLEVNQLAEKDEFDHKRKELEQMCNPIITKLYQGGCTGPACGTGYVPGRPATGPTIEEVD

Biological target: T1, 3xFLAG-Vaspin (visceral adipose tissue-derived serine protease inhibitor, SERPINA12), expressed in HK2 cells (human) (UniProt Q8IW75)
T1 sequence: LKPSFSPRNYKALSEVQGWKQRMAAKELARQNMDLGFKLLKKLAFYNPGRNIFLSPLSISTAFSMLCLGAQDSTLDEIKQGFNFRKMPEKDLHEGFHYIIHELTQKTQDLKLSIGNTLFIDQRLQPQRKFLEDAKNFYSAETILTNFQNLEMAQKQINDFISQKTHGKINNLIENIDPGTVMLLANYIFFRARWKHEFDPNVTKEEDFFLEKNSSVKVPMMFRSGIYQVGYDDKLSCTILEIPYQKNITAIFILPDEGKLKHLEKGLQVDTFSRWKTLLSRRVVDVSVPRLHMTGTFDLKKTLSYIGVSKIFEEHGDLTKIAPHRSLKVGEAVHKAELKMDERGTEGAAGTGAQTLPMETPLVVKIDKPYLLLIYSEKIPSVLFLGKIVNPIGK
Experiment: affinity purification with mass spectrometry; HK2 cell lysates overexpressing p3xFLAG-Vaspin or p3xFLAG, ANTI-FLAG M2 Affinity Gel; bands visible only with p3xFLAG-Vaspin excised, trypsin in-gel digest, LC-MS/MS

binding: binds
Substance: heat shock protein family A (Hsp70) member 1 like (HSPA1L), endogenous in HK2 cells (from UniProt P34931 1-641)
